Measurements: patent US10203334B2, “Methods and compositions related to nucleic acid binding assays” (Nubad, LLC, priority 2012, dated 2019)

System: d(CCCCGGGG)2
Assay: Fluorescein-neomycin fluorescence quenching by DNA duplex
Format: binding
Description: It has been shown that the fluorescence of a fluorescein-neomycin is quenched when bound to a nucleic acid target. In continued efforts to expand the applications of the fluorescein-neomycin conjugate, a fluorescence quenching study was performed to determine if the quenching of fluorescein-neomycin in the presence of DNA is representative of the neomycin affinity. Previous studies using the duplexes d(GGGGCCCC)2 and d(CCCCGGGG)2 have shown the binding is lower for d(CCCCGGGG)2. This has been shown from the ITC derived binding constants, FID studies, and electrostatic potential studies. […] For this reason the fluorescence quenching of fluorescein-neomycin with d(GGGGCCCC)2 and d(CCCCGGGG)2 was performed at three different buffer salt concentrations. […] Results from this study show here that the fluorescein-neomycin quenching can be applied to screening the 256 GC rich hairpins to identify which sequence neomycin has the highest affinity. Table 2 represents the change in fluorescence (%) values of fluorescein-neomycin with 1rdr d(GGGGCCCC)2 and d(CCCCGGGG)2 in 3 different buffer salt concentrations and the ratio between the change in fluorescence (%) values of F-neo with d(CCCCGGGG)2 compared to d(GGGGCCCC)2. Fluorescein-neomycin=1 μM, Buffer=10 mM SC, 0.5 mM EDTA, and either 50 mM NaCl, 100 mM NaCl, or 150 mM NaCl (pH=6.8). Experiment was performed in triplicate and the results were also polted in FIG. 10 showing the change in fluorescence (%) of fluorescein-neomycin with 1 equivalent d(GGGGCCCC)2 and d(CCCCGGGG)2 in 3 different buffer salt concentrations.

NCC1O[C@H](OC2C(O)C(OC3C(O)[C@H](N)CC(N)[C@H]3O[C@H]3OC(CN)[C@@H](O)C(O)C3N)O[C@@H]2CSCCNC(=O)CCSCC(=O)Nc2ccc(-c3c4ccc(=O)cc-4oc4cc(O)ccc34)c(C(=O)O)c2)C(N)C(O)[C@@H]1O (stereo partly drawn) [F-neo (42a), Neomycin-Fluorescein Conjugate]
Ratio of ΔF (%) with d(CCCCGGGG)2/ d(GGGGCCCC)2 (50 mM NaCl): 0.65 | Ratio of ΔF (%) with d(CCCCGGGG)2/ d(GGGGCCCC)2 (100 mM NaCl): 0.65 | Ratio of ΔF (%) with d(CCCCGGGG)2/ d(GGGGCCCC)2 (150 mM NaCl): 0.60
